Data as given in PubChem BioAssay AID1259254 (NCATS, 2017).

- Assay: 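Gene knock-downs that lead to re-replication, shown by excess G2 DNA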 (primary screen)
- Cell system: human HCT116 colorectal cancer cells
- Reagents: single siRNA against human genes
- Duration: 3 days
- Read-out: 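Nuclei stained with Hoechst and imaged; cell-cycle phase assigned by DNA content; G2 share scaled per plate, non-targeting siRNA 0%, GMNN siRNA 100%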
- Reading the numbers: G2 robust z-score: higher = more G2 cells, more excess DNA replication
- Call rule: 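Active siRNAs have a G2 robust z of 5 or more median absolute deviations over the median, which in these data means about 38% or higher of GMNN control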
Here is one part, drawn at random, of about 59,000 deposited reagents. About 1,550 of all reagents (2.6%) were called active. 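G2 share is only a proxy for re-replication; each gene was hit by three separate siRNAs, and active genes were retested.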 The numbers tell different reagents against one gene apart. Not all columns of the deposit are shown. No sequences are given here. Not stated in the record: the amount of reagent.

What did the screen give for COL9A1 #1?
G2 robust z-score: 0.745; activity call: inactive

With COL9A1 #2, how do the results read?
G2 robust z-score: 0.851; activity call: inactive

For COL9A1 #3, what was measured?
G2 robust z-score: -0.743; activity call: inactive

With C1QL1 #1, what does the deposit list?
G2 robust z-score: -0.349; activity call: inactive

How did the screen score C1QL1 #2?
G2 robust z-score: -0.651; activity call: inactive

For C1QL1 #3, what was measured?
G2 robust z-score: -0.402; activity call: inactive

For CAVIN3 #1, how do the results read?
G2 robust z-score: -0.504; activity call: inactive

What did the screen give for CAVIN3 #2?
G2 robust z-score: -0.698; activity call: inactive

For CAVIN3 #3, how do the results read?
G2 robust z-score: -0.531; activity call: inactive

What is on record for DCAF6 #1?
G2 robust z-score: -1.04; activity call: inactive

For DCAF6 #2, what was measured?
G2 robust z-score: -0.534; activity call: inactive

For DCAF6 #3, what was measured?
G2 robust z-score: 0.753; activity call: inactive

For TNK2 #1, what was measured?
G2 robust z-score: 8.18; activity call: active

Which result is listed for TNK2 #2?
G2 robust z-score: -0.741; activity call: inactive

Which result is listed for TNK2 #3?
G2 robust z-score: 1.76; activity call: inactive

A run of entries of the results above, for reference:
CAVIN3 #2 | G2 robust z-score: -0.698; activity call: inactive
CAVIN3 #3 | G2 robust z-score: -0.531; activity call: inactive

Additional reagents follow:
Which result is listed for CHST11 #1?
G2 robust z-score: 3.42; activity call: inactive

What is on record for CHST11 #2?
G2 robust z-score: 1.98; activity call: inactive

What is on record for CHST11 #3?
G2 robust z-score: -1.1; activity call: inactive

For SUCLG1 #1, how do the results read?
G2 robust z-score: -0.27; activity call: inactive

For SUCLG1 #2, how do the results read?
G2 robust z-score: 1.32; activity call: inactive

What did the screen give for SUCLG1 #3?
G2 robust z-score: 5.27; activity call: active

For C4orf33 #1, what does the deposit list?
G2 robust z-score: -0.328; activity call: inactive

How did the screen score C4orf33 #2?
G2 robust z-score: 0.616; activity call: inactive

How did the screen score C4orf33 #3?
G2 robust z-score: -0.665; activity call: inactive
